In patent US20240117030A1 one finds binding data, which are given here for 2 molecules.

Sequences of proteins named here, by UniProt entry; tags and fusion partners are left off. A change or cut given only in a name is not applied to a line headed by its entry.
UniProt P35225: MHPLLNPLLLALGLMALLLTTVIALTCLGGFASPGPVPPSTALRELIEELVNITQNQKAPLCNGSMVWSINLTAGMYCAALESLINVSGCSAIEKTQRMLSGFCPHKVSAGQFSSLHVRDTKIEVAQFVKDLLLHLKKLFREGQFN

Results are given in words; binding and its absence hold for the method and conditions named. Binding calls can cover weak binding; strength is not graded here.

In test [1] the target is human IL-13 (human) (UniProt P35225). Description: comparison of bioassays and complex structures.
Test [2] shares this target. Description: hybridoma screening, ELISA on human IL-13. On the technique in general: An ELISA detects its analyte on a solid surface through an enzyme-linked reagent.

B1: IL13-1283 (antibody, human IgG1, kappa, V domains shown)
VH: EVQLVESGGGLVQPGGSLRLSCAASGFTFISYAMSWVRQAPGKGLEWVASISSGGNTYYPDSVKGRFTISRDNAKNSLYLQMNSLRAEDTAVYYCARLDGYYFGFAYWGQGTLVTVSS
VL: DIQMTQSPSSLSASVGDRVTITCKASESVDNYGKSLMHWYQQKPGKAPKLLIYRASNLESGVPSRFSGSGSGTDFTLTISSLQPEDFATYYCQQSNEDPWTFGGGTKVEIKR
For B1, the binding result in test [1] is recorded as “binds”.

B2: IL13-1306 (antibody, mouse IgG1, V domains shown)
VH: EVKLVESGGDLVKPGGSLKLSCAASGFTFSSYAMSWVRQSPDKRLEWVASISSGDTTYYPDSVKGRFTISRDNARNILYLQMTSLRSEDTAMYYCARLDGYYFGFPYWGQGTLVTVSA
VL: DTVLTQSPASLAVSLGQRATISCKASESVDHSGSSLMHWYQQKPGQSPKLLIYRASNLESGIPARFSGSGSRTDFTLTINPVEADDVATYYCQQSNEDPWTFGGGTKLEIK
As for B2, the binding result in test [2] was “binds”.
